From patent US20200131249A1, “NOVEL PROTEINS AND USE THEREOF” (EVOLVERITAS KFT., priority 2017, published 2020)
Where a chain is given by its changes, count along the chain named. No constants are given. Whether binding was seen depends on the method and setting. Some entries that bind do so weakly or less than the wild type.

Chains of the proteins cited; added tags and fusions are not shown. Residues count along the entry.
UniProt O00187, residues 287-686: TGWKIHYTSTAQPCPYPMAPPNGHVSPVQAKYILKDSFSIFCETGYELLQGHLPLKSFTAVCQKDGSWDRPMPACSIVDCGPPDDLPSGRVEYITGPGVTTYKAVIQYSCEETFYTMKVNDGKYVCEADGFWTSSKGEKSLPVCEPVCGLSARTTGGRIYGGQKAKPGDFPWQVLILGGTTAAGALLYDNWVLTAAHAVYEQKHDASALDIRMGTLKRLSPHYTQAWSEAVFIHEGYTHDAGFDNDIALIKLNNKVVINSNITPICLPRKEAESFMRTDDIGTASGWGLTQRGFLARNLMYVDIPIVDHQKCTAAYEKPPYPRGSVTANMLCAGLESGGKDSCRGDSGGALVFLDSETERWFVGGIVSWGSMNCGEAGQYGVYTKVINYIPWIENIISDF

B1: protein according to SEQ ID NO: 11 (TFPI-D2 variant with the inhibitor loop FCRAVKR) (designed binder)
chain: KPDFCFLEEDPGFCRAVKRRYFYNNQTKQCERFKYGGCLGNMNNFETLEECKNICEDG
B2: protein according to SEQ ID NO: 14 (TFPI-D2 variant with the inhibitor loop PCRAVKR) (designed binder)
chain: B1 chain with F13P
B3: protein according to SEQ ID NO: 17 (TFPI-D2 variant with the inhibitor loop VCRAVKR) (designed binder)
chain: B1 chain with F13V

Target: human MASP-2 catalytic fragment CCP1-CCP2-SP (human) (UniProt O00187)
Test: enzyme inhibition

Binder | binding
B1 | binds
B2 | binds
B3 | binds
